PubChem BioAssay AID1224830 | NIAID, 2016
The deposit covers about 18,000 reagents; below is an unselected part. In the full data, about 2,900 (16%) were called active. 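Calls are made per well; low scores hint the gene aids the LPS response, high scores that it dampens it.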 A number with no mark means an inactive call. Repeated entries: four replicate wells of each siRNA pool.

Assay: 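Genes whose knock-down alters the TNF-alpha reporter response to LPS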 (primary screen)
Cells: human THP-1 monocytic leukaemia cells, TNF dual-luciferase reporter clone, PMA-differentiated to macrophage-like cells
Reagent: siRNA pool against human genes, 50 nM
Time to read-out: LPS for 4 h, given about 3 days after siRNA transfection
Treatment: bacterial LPS (TLR4 ligand), 10 ng/ml
Detection: 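Ratio of firefly to renilla light, scaled to the plate median and expressed as a robust z-score per replicate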
Scale: TNF reporter robust z-score: higher = stronger TNF reporter response to LPS
Hit rule: 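a well is active when its z-score exceeds 2.8 or falls below -1.5; control wells carry no call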

no.	gene knocked down	PubChem SID	TNF reporter robust z-score
1	LCN6	SID315462646	0.95
2	LCN6	SID315462646	2.37
3	LCN6	SID315462646	2.47
4	LCN6	SID315462646	2.33
5	CDC73	SID315459303	0.39
6	CDC73	SID315459303	1.05
7	CDC73	SID315459303	0.07
8	CDC73	SID315459303	0.35
9	SCLT1	SID315461920	-0.44
10	SCLT1	SID315461920	0.28
11	SCLT1	SID315461920	-0.19
12	SCLT1	SID315461920	0.06
13	BIRC8	SID315461139	-1.76 (active)
14	BIRC8	SID315461139	-2.07 (active)
15	BIRC8	SID315461139	-1.93 (active)
16	BIRC8	SID315461139	-0.39
17	HERC1	SID315452930	-0.22
18	HERC1	SID315452930	-0.51
19	HERC1	SID315452930	-0.57
20	ARPC2	SID315453825	0
21	ARPC2	SID315453825	0.01
22	ARPC2	SID315453825	-0.19
23	ARPC2	SID315453825	0.23
24	FNBP1L	SID315457227	1.97
25	FNBP1L	SID315457227	3.88 (active)
26	FNBP1L	SID315457227	2.8 (active)
27	FNBP1L	SID315457227	2.64
28	DPY19L4	SID315463899	0.77
29	DPY19L4	SID315463899	1.18
30	DPY19L4	SID315463899	-0.15
31	DPY19L4	SID315463899	0.81
32	LPAR3	SID315455337	-0.34
33	LPAR3	SID315455337	-0.81
34	LPAR3	SID315455337	-0.45
35	LPAR3	SID315455337	-0.62
36	SCAPER	SID315456313	-0.16
37	SCAPER	SID315456313	0.48
38	SCAPER	SID315456313	-0.8
39	SCAPER	SID315456313	-1.02
40	YIPF5	SID315459887	1.12
41	YIPF5	SID315459887	2.98 (active)
42	YIPF5	SID315459887	0.85
43	YIPF5	SID315459887	0.24
44	ZNF471	SID315458476	0.61
45	ZNF471	SID315458476	0.64
46	ZNF471	SID315458476	-0.27
47	ZNF471	SID315458476	-0.11
48	INSL4	SID315449520	-0.66
49	INSL4	SID315449520	0.04
50	INSL4	SID315449520	0.29
51	INSL4	SID315449520	0.11
52	PCSK2	SID315450461	0.16
53	PCSK2	SID315450461	0.13
54	PCSK2	SID315450461	-0.87
55	PCSK2	SID315450461	-0.67
56	COQ6	SID315456394	-0.18
57	COQ6	SID315456394	-0.11
58	COQ6	SID315456394	-0.29
59	COQ6	SID315456394	0.4
60	INSIG2	SID315456505	2.99 (active)
61	INSIG2	SID315456505	0.59
62	INSIG2	SID315456505	0.98
63	INSIG2	SID315456505	2.13
64	ACAP2	SID315455303	-0.97
65	ACAP2	SID315455303	-0.13
66	ACAP2	SID315455303	-1.13
67	ACAP2	SID315455303	-0.63
68	PLA2G4D	SID315463702	-1.37
69	PLA2G4D	SID315463702	-0.97
70	PLA2G4D	SID315463702	-1.08
71	PLA2G4D	SID315463702	-0.63
72	RRAGD	SID315458657	1.75
73	RRAGD	SID315458657	0.54
74	RRAGD	SID315458657	-0.61
75	RRAGD	SID315458657	0.71
